PubChem BioAssay AID652259, Drosophila RNAi Screening Center | 2013
Assay: 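Genome-wide hunt for genes that control Wingless pathway activity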 (primary screen). System: Drosophila clone 8 imaginal disc epithelial cells. Knock-down reagent: long dsRNA against Drosophila genes. Challenge: pathway stimulated by co-transfected Wingless expression plasmid. Measurement: 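Firefly luciferase from a tcf-site Wingless reporter, measured alongside co-transfected Renilla luciferase that tracks transfection; pathway stimulated by a Wingless plasmid; the firefly-to-Renilla ratio is not deposited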. Direction: firefly reporter light: higher = more Wg reporter light, before normalisation; Renilla control light: higher = more transfected or surviving cells. Rule for the call: 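Strong candidates differ from their plate mean by at least two out of four per-plate statistical tests; weak candidates meet just one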. Meaning of the calls: active = candidate regulator (raises or lowers reporter); inactive = not a candidate.
The screen tested about 22,000 reagents; this is an unselected part of those with a known target gene and a result. In the full data, 233 (1.1%) got an active call. 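Light values are raw, unnormalised plate reads; the ratio scores behind the reporter calls were not deposited.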 Entries without a mark were called inactive. Not given: the amount of reagent, the time to read-out, the dose of the treatment.

With knock-down of CG14624 (GeneID 31068) [DRSC18634], the screen gave firefly reporter light, replicate 1 = 19009; Renilla control light, replicate 1 = 7765.
CG30039 (GeneID 246411) [DRSC21794] showed firefly reporter light, replicate 1 = 2.38e5; firefly reporter light, replicate 2 = 2.58e5; Renilla control light, replicate 1 = 1.06e5; Renilla control light, replicate 2 = 1.06e5.
For CG6628 (GeneID 39183) [DRSC10679] the deposit lists firefly reporter light, replicate 1 = 4509; Renilla control light, replicate 1 = 1688.
Knock-down of CG2972 (GeneID 31943) [DRSC18250] came out at: firefly reporter light, replicate 1 = 1737; firefly reporter light, replicate 2 = 5749; Renilla control light, replicate 1 = 656; Renilla control light, replicate 2 = 2005.
After knock-down of Spg7 (GeneID 31253) [DRSC18469] the results were firefly reporter light, replicate 1 = 13395; Renilla control light, replicate 1 = 9771.
After knock-down of Octbeta3R (GeneID 3885573) [DRSC15351], the screen gave firefly reporter light, replicate 1 = 11236; Renilla control light, replicate 1 = 3129.
Depletion of Octbeta3R (GeneID 3885573) [DRSC16191] came out at: firefly reporter light, replicate 1 = 19188; Renilla control light, replicate 1 = 3600.
For Octbeta3R (GeneID 3885573) [DRSC21853], the values are firefly reporter light, replicate 1 = 5.54e5; firefly reporter light, replicate 2 = 6.04e5; Renilla control light, replicate 1 = 2.01e5; Renilla control light, replicate 2 = 2.43e5.
With knock-down of Octbeta3R (GeneID 3885573) [DRSC21902], the record shows firefly reporter light, replicate 1 = 2.97e5; firefly reporter light, replicate 2 = 2.99e5; Renilla control light, replicate 1 = 1.38e5; Renilla control light, replicate 2 = 1.32e5.
With knock-down of Octbeta3R (GeneID 3885573) [DRSC22350], the record shows firefly reporter light, replicate 1 = 9.20e5; firefly reporter light, replicate 2 = 8.73e5; Renilla control light, replicate 1 = 4.92e5; Renilla control light, replicate 2 = 4.68e5.
Knock-down of Wsck (GeneID 318600) [DRSC13682] gave: firefly reporter light, replicate 1 = 3248; Renilla control light, replicate 1 = 1403.
CG6142 (GeneID 43178) [DRSC15976] gave firefly reporter light, replicate 1 = 24105; Renilla control light, replicate 1 = 14950.
With knock-down of twit (GeneID 35353) [DRSC03210], the record shows firefly reporter light, replicate 1 = 8416; Renilla control light, replicate 1 = 5606.
Against CG4269 (GeneID 37578) [DRSC04457], the values are firefly reporter light, replicate 1 = 2468; firefly reporter light, replicate 2 = 6368; Renilla control light, replicate 1 = 553; Renilla control light, replicate 2 = 2138.
For Tsp42Eq (GeneID 35628) [DRSC06180], the values are firefly reporter light, replicate 1 = 2216; firefly reporter light, replicate 2 = 6176; Renilla control light, replicate 1 = 662; Renilla control light, replicate 2 = 2509.

Entries listed so far whose gene name starts with O or o (5):
Octbeta3R (GeneID 3885573) [DRSC15351] — firefly reporter light, replicate 1 = 11236; Renilla control light, replicate 1 = 3129
Octbeta3R (GeneID 3885573) [DRSC16191] — firefly reporter light, replicate 1 = 19188; Renilla control light, replicate 1 = 3600
Octbeta3R (GeneID 3885573) [DRSC21853] — firefly reporter light, replicate 1 = 5.54e5; firefly reporter light, replicate 2 = 6.04e5; Renilla control light, replicate 1 = 2.01e5; Renilla control light, replicate 2 = 2.43e5
Octbeta3R (GeneID 3885573) [DRSC21902] — firefly reporter light, replicate 1 = 2.97e5; firefly reporter light, replicate 2 = 2.99e5; Renilla control light, replicate 1 = 1.38e5; Renilla control light, replicate 2 = 1.32e5
Octbeta3R (GeneID 3885573) [DRSC22350] — firefly reporter light, replicate 1 = 9.20e5; firefly reporter light, replicate 2 = 8.73e5; Renilla control light, replicate 1 = 4.92e5; Renilla control light, replicate 2 = 4.68e5

The list goes on.
Against mdy (GeneID 44887) [DRSC01559], the values are firefly reporter light, replicate 1 = 18280; Renilla control light, replicate 1 = 8505.
After knock-down of mdy (GeneID 44887) [DRSC02250], the screen gave firefly reporter light, replicate 1 = 6561; Renilla control light, replicate 1 = 2522.
With knock-down of CG13384 (GeneID 34160) [DRSC02258], the screen gave firefly reporter light, replicate 1 = 7905; Renilla control light, replicate 1 = 4692.
For CG13365 (GeneID 31005) [DRSC17899], the entry reads firefly reporter light, replicate 1 = 21350; Renilla control light, replicate 1 = 18356.
For CG7881 (GeneID 35521) [DRSC04898], the entry reads firefly reporter light, replicate 1 = 1849; firefly reporter light, replicate 2 = 7394; Renilla control light, replicate 1 = 611; Renilla control light, replicate 2 = 1896.
After knock-down of CG31915 (GeneID 319025) [DRSC03000], the record shows firefly reporter light, replicate 1 = 1673; firefly reporter light, replicate 2 = 4025; Renilla control light, replicate 1 = 714; Renilla control light, replicate 2 = 1009.
After knock-down of Nedd4 (GeneID 39958) [DRSC11234] the results were firefly reporter light, replicate 1 = 7240; Renilla control light, replicate 1 = 3557.
With knock-down of Nedd4 (GeneID 39958) [DRSC21548], the screen gave firefly reporter light, replicate 1 = 3.55e5; firefly reporter light, replicate 2 = 3.82e5; Renilla control light, replicate 1 = 1.66e5; Renilla control light, replicate 2 = 1.68e5.
After knock-down of CG42826 (GeneID 10178905) [DRSC10682], the record shows firefly reporter light, replicate 1 = 9027; Renilla control light, replicate 1 = 3293.
Pgant6 (GeneID 38346) [DRSC08552] scored firefly reporter light, replicate 1 = 14454; Renilla control light, replicate 1 = 5379.
